Experimental data from the supplement of paper PMC10849652.
The other results are listed elsewhere or left out.

By UniProt entry, the sequences of proteins in these tests, tags left out. Where a name states a change or a piece, a line headed by the entry shows the natural chain unless it says otherwise.
UniProt P12074, whole entry, looked up: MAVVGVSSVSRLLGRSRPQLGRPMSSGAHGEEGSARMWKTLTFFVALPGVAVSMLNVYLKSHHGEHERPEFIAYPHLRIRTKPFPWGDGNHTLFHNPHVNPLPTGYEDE
UniProt Q03060: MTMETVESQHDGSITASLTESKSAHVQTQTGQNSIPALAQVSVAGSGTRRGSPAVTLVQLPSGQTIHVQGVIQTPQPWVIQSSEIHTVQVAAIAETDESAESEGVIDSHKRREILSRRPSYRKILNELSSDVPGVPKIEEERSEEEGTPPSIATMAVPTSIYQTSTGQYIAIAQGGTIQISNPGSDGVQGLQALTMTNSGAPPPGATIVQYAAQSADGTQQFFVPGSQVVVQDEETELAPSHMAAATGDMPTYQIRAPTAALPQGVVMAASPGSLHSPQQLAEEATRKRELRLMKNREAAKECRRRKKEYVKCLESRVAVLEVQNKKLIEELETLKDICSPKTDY
UniProt Q10570: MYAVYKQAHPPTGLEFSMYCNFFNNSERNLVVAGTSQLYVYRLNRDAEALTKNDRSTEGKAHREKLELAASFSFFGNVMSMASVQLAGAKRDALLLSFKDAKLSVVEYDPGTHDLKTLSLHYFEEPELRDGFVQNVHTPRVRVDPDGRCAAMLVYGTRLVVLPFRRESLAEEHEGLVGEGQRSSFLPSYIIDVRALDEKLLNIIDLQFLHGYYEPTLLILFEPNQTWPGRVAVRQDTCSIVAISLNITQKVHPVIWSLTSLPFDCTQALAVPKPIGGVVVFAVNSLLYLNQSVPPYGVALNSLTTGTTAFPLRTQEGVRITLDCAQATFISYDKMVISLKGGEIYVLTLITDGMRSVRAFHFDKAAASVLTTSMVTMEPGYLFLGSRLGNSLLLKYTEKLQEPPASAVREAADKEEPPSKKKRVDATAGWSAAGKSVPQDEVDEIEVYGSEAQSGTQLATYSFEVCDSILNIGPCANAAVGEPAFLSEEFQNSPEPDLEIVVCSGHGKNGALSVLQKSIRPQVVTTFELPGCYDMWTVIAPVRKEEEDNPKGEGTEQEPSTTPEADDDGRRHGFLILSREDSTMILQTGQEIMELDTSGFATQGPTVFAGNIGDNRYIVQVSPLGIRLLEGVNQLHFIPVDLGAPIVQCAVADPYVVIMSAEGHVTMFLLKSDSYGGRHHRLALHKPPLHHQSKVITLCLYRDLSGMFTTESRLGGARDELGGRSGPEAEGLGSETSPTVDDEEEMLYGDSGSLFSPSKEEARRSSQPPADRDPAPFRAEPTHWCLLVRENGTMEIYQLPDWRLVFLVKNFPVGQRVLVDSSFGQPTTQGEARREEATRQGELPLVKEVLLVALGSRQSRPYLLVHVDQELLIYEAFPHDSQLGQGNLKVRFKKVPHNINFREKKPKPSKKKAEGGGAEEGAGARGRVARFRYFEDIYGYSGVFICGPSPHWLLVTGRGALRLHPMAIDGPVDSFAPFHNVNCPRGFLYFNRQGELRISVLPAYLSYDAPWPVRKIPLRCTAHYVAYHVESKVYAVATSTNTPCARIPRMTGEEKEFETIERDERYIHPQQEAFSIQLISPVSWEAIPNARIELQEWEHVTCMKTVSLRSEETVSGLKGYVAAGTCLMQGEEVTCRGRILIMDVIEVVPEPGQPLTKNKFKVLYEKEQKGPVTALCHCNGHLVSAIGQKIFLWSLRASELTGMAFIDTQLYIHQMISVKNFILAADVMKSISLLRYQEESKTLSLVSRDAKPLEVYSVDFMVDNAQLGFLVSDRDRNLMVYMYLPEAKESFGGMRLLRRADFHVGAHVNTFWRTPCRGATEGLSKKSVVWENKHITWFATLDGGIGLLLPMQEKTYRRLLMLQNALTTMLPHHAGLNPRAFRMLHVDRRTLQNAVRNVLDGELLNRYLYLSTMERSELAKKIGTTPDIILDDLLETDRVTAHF
UniProt Q8N8Q8: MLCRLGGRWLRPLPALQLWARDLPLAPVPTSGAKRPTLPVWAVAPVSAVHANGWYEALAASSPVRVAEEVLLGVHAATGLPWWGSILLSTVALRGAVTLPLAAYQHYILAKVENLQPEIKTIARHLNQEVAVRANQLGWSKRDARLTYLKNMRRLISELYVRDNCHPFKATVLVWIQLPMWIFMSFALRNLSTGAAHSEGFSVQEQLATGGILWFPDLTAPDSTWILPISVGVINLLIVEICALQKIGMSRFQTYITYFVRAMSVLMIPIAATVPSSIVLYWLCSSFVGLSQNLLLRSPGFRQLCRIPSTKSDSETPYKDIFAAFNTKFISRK
UniProt P53621: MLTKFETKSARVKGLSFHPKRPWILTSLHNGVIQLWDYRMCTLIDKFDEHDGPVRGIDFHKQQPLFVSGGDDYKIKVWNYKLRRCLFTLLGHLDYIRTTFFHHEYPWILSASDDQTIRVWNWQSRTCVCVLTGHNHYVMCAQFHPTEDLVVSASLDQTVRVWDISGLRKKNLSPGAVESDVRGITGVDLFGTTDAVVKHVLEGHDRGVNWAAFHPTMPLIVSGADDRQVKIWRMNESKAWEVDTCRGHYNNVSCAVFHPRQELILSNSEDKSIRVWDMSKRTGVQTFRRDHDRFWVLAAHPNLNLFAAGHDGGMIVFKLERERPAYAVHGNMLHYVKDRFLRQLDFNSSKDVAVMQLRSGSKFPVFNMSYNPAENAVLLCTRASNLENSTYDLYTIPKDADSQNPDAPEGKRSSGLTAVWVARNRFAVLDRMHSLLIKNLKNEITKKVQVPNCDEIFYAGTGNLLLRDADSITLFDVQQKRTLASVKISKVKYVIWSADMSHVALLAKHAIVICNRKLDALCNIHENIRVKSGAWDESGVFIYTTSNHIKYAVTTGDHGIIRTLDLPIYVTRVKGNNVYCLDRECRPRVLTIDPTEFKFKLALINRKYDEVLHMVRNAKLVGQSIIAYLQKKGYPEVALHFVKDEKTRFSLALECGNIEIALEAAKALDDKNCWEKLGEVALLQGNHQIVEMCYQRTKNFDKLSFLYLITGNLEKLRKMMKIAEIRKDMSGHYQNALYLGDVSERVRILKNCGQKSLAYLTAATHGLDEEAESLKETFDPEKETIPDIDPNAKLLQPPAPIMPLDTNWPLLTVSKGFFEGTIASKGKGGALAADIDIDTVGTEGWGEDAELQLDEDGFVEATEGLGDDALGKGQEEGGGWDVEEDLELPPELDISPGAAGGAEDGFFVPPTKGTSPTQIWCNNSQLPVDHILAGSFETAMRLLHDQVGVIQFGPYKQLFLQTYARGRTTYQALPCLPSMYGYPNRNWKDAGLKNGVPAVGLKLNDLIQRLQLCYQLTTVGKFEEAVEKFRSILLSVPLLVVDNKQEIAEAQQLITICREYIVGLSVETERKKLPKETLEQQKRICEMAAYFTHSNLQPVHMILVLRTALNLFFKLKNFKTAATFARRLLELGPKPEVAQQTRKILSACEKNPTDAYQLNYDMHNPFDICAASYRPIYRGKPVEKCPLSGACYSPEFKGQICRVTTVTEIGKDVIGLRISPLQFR
UniProt Q96HD1: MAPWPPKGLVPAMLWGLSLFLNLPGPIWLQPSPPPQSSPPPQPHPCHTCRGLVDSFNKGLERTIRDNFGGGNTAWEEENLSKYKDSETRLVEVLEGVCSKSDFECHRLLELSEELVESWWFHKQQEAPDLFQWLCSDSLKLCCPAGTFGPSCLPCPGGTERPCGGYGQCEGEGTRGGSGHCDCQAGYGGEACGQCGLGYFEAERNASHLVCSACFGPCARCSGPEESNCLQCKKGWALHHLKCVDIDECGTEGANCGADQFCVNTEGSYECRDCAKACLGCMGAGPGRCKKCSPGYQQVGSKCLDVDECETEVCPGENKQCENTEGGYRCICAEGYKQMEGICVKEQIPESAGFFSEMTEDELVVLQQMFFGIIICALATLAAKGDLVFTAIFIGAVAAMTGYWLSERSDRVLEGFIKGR
UniProt P41240: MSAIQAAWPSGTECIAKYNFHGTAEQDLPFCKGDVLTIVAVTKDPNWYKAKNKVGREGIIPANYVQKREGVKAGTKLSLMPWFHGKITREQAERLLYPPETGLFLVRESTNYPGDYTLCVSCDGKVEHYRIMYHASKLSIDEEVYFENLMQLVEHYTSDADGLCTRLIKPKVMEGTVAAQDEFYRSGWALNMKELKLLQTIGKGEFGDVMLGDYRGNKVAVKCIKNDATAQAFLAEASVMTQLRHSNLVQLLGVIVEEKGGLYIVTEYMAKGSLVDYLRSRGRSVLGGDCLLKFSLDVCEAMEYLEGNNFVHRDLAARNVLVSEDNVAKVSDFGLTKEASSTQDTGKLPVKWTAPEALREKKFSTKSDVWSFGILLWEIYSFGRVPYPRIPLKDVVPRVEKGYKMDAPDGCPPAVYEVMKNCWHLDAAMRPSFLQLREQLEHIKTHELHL
UniProt P09669, whole entry, looked up: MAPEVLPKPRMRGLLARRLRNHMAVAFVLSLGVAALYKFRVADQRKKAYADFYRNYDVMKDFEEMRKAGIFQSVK
UniProt P35606: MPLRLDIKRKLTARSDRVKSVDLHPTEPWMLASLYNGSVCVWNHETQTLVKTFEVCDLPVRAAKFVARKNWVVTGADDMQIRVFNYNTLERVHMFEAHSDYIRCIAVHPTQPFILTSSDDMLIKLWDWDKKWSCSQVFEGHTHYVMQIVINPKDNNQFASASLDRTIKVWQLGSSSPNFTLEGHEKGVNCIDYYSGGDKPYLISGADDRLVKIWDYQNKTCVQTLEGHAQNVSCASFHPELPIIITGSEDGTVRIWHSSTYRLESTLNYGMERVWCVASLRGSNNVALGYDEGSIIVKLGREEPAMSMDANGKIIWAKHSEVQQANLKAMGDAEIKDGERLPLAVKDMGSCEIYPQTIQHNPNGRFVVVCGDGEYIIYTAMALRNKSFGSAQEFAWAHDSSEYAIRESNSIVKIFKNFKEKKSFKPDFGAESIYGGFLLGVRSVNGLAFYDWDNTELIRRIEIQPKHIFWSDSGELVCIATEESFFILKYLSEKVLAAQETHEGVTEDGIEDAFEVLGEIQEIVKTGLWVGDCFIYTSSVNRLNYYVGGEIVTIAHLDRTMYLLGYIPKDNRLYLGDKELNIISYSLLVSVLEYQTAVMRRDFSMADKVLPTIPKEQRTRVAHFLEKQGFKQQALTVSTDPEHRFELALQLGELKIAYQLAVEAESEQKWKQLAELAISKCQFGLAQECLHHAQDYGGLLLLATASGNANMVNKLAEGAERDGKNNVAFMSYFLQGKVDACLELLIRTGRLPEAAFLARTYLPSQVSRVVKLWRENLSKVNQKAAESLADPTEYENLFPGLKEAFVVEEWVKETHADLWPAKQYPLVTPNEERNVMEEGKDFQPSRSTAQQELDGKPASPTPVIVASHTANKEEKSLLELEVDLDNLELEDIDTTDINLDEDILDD
UniProt P14854, whole entry, looked up: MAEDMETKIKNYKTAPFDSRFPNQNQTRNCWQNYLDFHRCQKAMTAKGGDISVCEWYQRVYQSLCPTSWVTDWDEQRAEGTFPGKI
UniProt Q9NZJ6: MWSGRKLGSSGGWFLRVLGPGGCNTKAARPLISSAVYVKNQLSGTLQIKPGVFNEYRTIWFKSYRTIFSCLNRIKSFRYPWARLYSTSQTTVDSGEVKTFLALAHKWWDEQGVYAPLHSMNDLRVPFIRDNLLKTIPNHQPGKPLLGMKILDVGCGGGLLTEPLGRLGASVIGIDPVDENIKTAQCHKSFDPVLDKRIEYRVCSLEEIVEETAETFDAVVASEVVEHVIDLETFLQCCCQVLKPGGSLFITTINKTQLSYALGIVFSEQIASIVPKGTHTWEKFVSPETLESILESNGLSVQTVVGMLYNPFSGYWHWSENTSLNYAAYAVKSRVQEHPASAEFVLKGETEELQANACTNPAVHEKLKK
UniProt O14579: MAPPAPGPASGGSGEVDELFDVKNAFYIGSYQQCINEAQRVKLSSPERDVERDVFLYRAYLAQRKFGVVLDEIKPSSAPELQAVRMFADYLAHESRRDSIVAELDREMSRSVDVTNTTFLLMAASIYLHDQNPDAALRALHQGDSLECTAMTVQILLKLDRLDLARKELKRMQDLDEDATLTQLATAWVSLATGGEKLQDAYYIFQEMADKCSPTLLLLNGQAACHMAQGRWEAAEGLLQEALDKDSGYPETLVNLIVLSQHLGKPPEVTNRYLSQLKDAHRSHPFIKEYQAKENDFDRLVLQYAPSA
UniProt Q9Y6N1: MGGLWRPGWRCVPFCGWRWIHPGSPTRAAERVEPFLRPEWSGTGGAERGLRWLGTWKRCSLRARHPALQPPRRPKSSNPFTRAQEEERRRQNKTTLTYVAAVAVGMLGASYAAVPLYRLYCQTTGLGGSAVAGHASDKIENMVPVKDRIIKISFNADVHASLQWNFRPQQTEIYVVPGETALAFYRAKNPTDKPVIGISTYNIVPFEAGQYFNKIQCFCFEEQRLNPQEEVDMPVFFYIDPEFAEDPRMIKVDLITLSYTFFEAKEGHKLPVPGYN
UniProt P20674, whole entry, looked up: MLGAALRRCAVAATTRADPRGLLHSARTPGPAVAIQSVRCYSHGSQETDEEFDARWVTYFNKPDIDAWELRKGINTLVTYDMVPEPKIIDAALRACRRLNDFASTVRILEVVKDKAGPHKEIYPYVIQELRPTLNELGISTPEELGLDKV

Tests used:
Test in all cases: log2 fold change, soluble protein after heating vs DMSO (PISA); higher = thermal stabilisation; K562 cells, 10 uM, 30 min; active = over 0.2 and 3.5 SD of the protein, either way, in both replicates (recomputed)
[1] = compound: C1=CC=C(C=C1)[C@H](COC2=CC3=C(C=C2)NC(=O)N3)NC(=O)C4=CC=CN(C4=O)CC5=CC(=C(C=C5)F)F
Outline: (§1)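 Soluble protein was quantified by TMTpro 16plex LC-MS/MS after channel sums were equalised. It was obtained as the supernatant after 21,000xg for 90 min from pooled aliquots of K562 cells (2×10^6 cells/mL, 10 μM compound, 30 min) heated for 3 min across 48°C-58°C and extracted in PBS with 0.5% NP-40 at 4°C. Thermal stability values are relative to control samples and come from duplicates. They are given as log2 fold changes.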

[2] = compound: CC1=C(SC2=C1C(=N[C@H](C3=NN=C(N32)C)CC(=O)N)C4=CC=C(C=C4)Cl)C
Outline: as §1

[3] = compound: CC1=C2C(=CC=C1)N=C(N(C2=O)C3=CC=CC=C3C)CN4C=NC5=C(N=CN=C54)N
Outline: as §1

[4] = compound: Cc1sc2c(c1C)C(c1ccc(Cl)cc1)=N[C@@H](CC(=O)OC(C)(C)C)c1nnc(C)n1-2
Outline: as §1

[5] = compound: c1ccc([C@@H]2C[C@H]2NC2CCNCC2)cc1
Outline: as §1

Measured: log2 fold change

COPS4 (UniProt Q9BT78)
inactive: [1] 0.04 | [2] 0.023 | [3] 0.016 | [4] -0.01 | [5] -0.011

COPS7B (UniProt Q9H9Q2)
inactive: [1] 0.003 | [2] -0.026 | [3] -0.032 | [4] 0.04 | [5] -0.1

COX6A1 (UniProt P12074)
inactive: [1] 0.101 | [2] 0.077 | [3] 0.105 | [4] -0.195 | [5] 0.05

COPB1 (UniProt P53618)
inactive: [1] -0.018 | [2] 0.036 | [3] 0.017 | [4] -0.013 | [5] -0.001

CREM isoform 1 (UniProt Q03060)
inactive: [1] 0.131 | [2] 0.066 | [3] 0.032 | [4] 0.187 | [5] -0.151

CPSF1 (UniProt Q10570)
inactive: [1] -0.012 | [2] -0.049 | [3] -0.017 | [4] 0.132 | [5] 0.006

CSE1L (UniProt P55060)
inactive: [1] -0.024 | [2] 0.063 | [3] 0.033 | [4] -0.028 | [5] -0.009

COX18 (UniProt Q8N8Q8)
inactive: [1] 0.045 | [2] 0.031 | [3] 0.053 | [4] -0.007 | [5] -0.004

COPA isoform 2 (UniProt P53621)
inactive: [1] -0.017 | [2] 0.032 | [3] 0.038 | [4] -0.012 | [5] -0.011

CRELD1 isoform 2 (UniProt Q96HD1)
inactive: [1] -0.147 | [2] -0.01 | [3] 0.24 | [4] 0.139 | [5] 0.042

CRKL (UniProt P46109)
inactive: [1] 0.01 | [2] 0.041 | [3] 0.032 | [4] 0.016 | [5] -0.002

CSK (UniProt P41240)
inactive: [1] -0.096 | [2] 0.051 | [3] 0.057 | [4] 0.011 | [5] -0.032

COX6C (UniProt P09669)
inactive: [1] -0.023 | [2] 0.022 | [3] 0.012 | [4] -0.035 | [5] -0.026

COPB2 (UniProt P35606)
inactive: [1] -0.01 | [2] 0.062 | [3] 0.016 | [4] -0.005 | [5] -0.027

COMMD4 (UniProt Q9H0A8)
inactive: [1] -0.035 | [2] -0.05 | [3] 0.026 | [4] -0.019 | [5] -0.035

CREB1 (UniProt P16220)
inactive: [1] 0.016 | [2] 0.016 | [3] -0.024 | [4] -0.012 | [5] -0.041

COX6B1 (UniProt P14854)
inactive: [1] 0.007 | [2] 0.141 | [3] 0.003 | [4] -0.153 | [5] -0.054

COPG2 (UniProt Q9UBF2)
inactive: [1] -0.008 | [2] 0.056 | [3] 0.047 | [4] 0.002 | [5] -0.019

CPT1A (UniProt P50416)
inactive: [1] 0.095 | [2] 0.011 | [3] 0.125 | [4] -0.022 | [5] -0.118

CPSF3 (UniProt Q9UKF6)
inactive: [1] -0.016 | [2] 0.024 | [3] 0.036 | [4] -0.026 | [5] 0.009

CPNE7 (UniProt Q9UBL6)
inactive: [1] 0.001 | [2] 0.103 | [3] 0.084 | [4] -0.031 | [5] -0.043

Quoted at random: two records from the list.
CPNE7 (UniProt Q9UBL6)
inactive: [1] 0.001 | [2] 0.103 | [3] 0.084 | [4] -0.031 | [5] -0.043

CPT1A (UniProt P50416)
inactive: [1] 0.095 | [2] 0.011 | [3] 0.125 | [4] -0.022 | [5] -0.118

Carrying on.

CSNK2A1 (UniProt P68400)
inactive: [1] 0.018 | [2] 0.033 | [3] 0.018 | [4] -0.008 | [5] 0.02

CRELD2 isoform 5 (UniProt Q6UXH1)
inactive: [1] -0.063 | [2] 0.037 | [3] -0.049 | [4] -0.028 | [5] -0.012

COQ3 (UniProt Q9NZJ6)
inactive: [1] -0.023 | [2] 0.135 | [3] 0.028 | [4] -0.167 | [5] 0.07

CPSF7 isoform 3 (UniProt Q8N684)
inactive: [1] 0.007 | [2] 0.013 | [3] -0.012 | [4] 0.017 | [5] -0.013

COPE (UniProt O14579)
inactive: [1] -0.045 | [2] 0.033 | [3] 0.001 | [4] 0.159 | [5] 0.038

COX11 (UniProt Q9Y6N1)
inactive: [1] 0.037 | [2] 0.074 | [3] 0.026 | [4] -0.082 | [5] 0.088

CORO7 isoform 3 (UniProt P57737)
inactive: [1] -0.024 | [2] -0.017 | [3] 0.015 | [4] 0.01 | [5] -0.001

COX15 (UniProt Q7KZN9)
inactive: [1] -0.027 | [2] 0.071 | [3] 0.036 | [4] -0.013 | [5] -0.02

COX5A (UniProt P20674)
inactive: [1] 0.016 | [2] 0.059 | [3] 0.037 | [4] -0.075 | [5] -0.043
